Some of these results come from one statement about several compounds together.
Key:
[1] = Pharmacokinetic study in healthy volunteers, topical application to all 10 toenails; format: in vivo, human; conditions: trough plasma levels days 8, 10, 11 (5th application)
Experimental: In […] patients, efinaconazole 10% solution (IDP-108) was applied topically to all 10 toenails (0.42 mL total daily dose volume) administered as single and then 7 daily doses to 10 healthy volunteers, and once daily for 28 days to 18 severe onychomycosis patients. The efinaconazole 10% solution (0.42 mL/subject) was applied topically in the morning, unoccluded (i.e., without occluding, blocking or covering the nail with, for example, adhesive tape, bandage, dressing, sealant, etc.), by a trained nurse or study technician to all 10 toenails as a single dose (day 1), and seven consecutive daily doses (day 4 through day 10). […]
Plasma concentrations of efinaconazole and its major metabolite H3 were determined by LC-MS-MS at multiple timepoints. Plasma concentrations of efinaconazole and H3 were determined using a validated LC-MS-MS method. […] The concentration of efinaconazole in plasma was determined at multiple time points over the course of 24-hour periods on days 1, 14, and 28. […] Pharmacokinetic parameters were calculated from individual plasma concentrations, whenever possible, using noncompartmental analysis in WinNonlin (Pharsight, Sunnyvale, Calif., USA), and included Cmax (observed peak drug concentration), Tmax (time at which Cmax occurs), Cmin (observed minimum drug concentration), t1/2 (apparent half-life), and AUC (area under the concentration-time curve).

[2] = Pharmacokinetic study in severe onychomycosis patients, once daily for 28 days; format: in vivo, human
Experimental: Systemic absorption of efinaconazole in 18 […] patients with severe onychomycosis was determined after application of IDP-108 (10% efinaconazole) once daily for 28 days to patients' 10 toenails and adjacent skin. Specifically, two single-center, open-label studies in healthy volunteers and severe onychomycosis patients.
A separate single-center, open-label study to evaluate safety and PK of efinaconazole and its H3 metabolite in 20 patients with severe toenail onychomycosis also was conducted. The study enrolled men and women 18-70 years of age who had clinical diagnoses of stable or exacerbating severe DLSO affecting ≥80% of the area of both great toenails. The great toenails had evidence of toenail growth, and at least four toenails other than the great toenails were also affected by onychomycosis. A positive microscopic examination with potassium hydroxide (KOH) for the hyphae associated with dermatophytes was obtained for at least one great toenail at the screening visit. […]
Plasma concentrations of efinaconazole and its major metabolite H3 were determined by LC-MS-MS at multiple timepoints. Plasma concentrations of efinaconazole and H3 were determined using a validated LC-MS-MS method. […] The concentration of efinaconazole in plasma was determined at multiple time points over the course of 24-hour periods on days 1, 14, and 28. […]

With `C=C1CCN([C@H](C)[C@](O)(Cn2cncn2)c2ccc(F)cc2F)CC1` [efinaconazole, (2R,3R)-2-(2,4-difluorophenyl)-3-(4-methylenepiperidin-1-yl)-1-(1H-1,2,4-triazol-1-yl) butan-2-ol] the “steady-state reached by day” value [1] was ≤ 8 days and the “steady state reached by day of dosing” value [2] was ≤ 14 days.

From patent publication US10245257B2, “Anti-infective methods, compositions, and devices” (Dow Pharmaceutical Sciences, Inc., priority 2013, dated 2019)
